Reference: the supplement of paper PMC8256030
“And” between values parts separate entries of the source, which are not always exact repeats. Identical values can stand only once. Counter-ions that a name gives are not always drawn. Some of the results follow. Single values are uncertain here, since repeats match poorly.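 HEK293T cells were given each compound shortly before transfection with a reporter in which red mCherry is followed by the SARS-CoV-2 frameshift element and then GFP in the −1 frame, so GFP appears only after frameshifting.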

Columns and labels:
[1] = tested on: SARS-CoV-2 -1 PRF reporter mCherry-FSE-GFP(-1); assay: mCherry (red) intensity as percent of control; higher = higher upstream reporter expression; conditions: 10 µM; 24 h; HEK293T
[2] = tested on: SARS-CoV-2 -1 PRF reporter mCherry-FSE-GFP(-1); assay: percent effect, decrease of GFP/mCherry ratio (-1 PRF reporter) relative to controls; higher = stronger frameshift inhibition; conditions: 10 µM; 24 h; HEK293T

Compound | mCherry [1] | percent effect [2]
CCOC(=O)C1=C(C)NC(C)=C(C(=O)OC)C1c1cccc([N+](=O)[O-])c1 (stereo unspecified) [nitrendipine] | 81.4% | -2.53%
COCC(=O)Nc1cc(Sc2ccccc2)ccc1N=C(NC(=O)OC)NC(=O)OC [febantel] | 111% | -4.24%
CSc1ccc(C(=O)c2[nH]c(=O)[nH]c2C)cc1 [enoximone] | 106% | -0.466%
CCCCCCCCCCOc1cc2c(=O)c(C(=O)OCC)c[nH]c2cc1OCC | 149% | 0.094%
CN(C)NC(=O)c1ccc(Cl)c(S(N)(=O)=O)c1 [alipamide] | 87.8% | -6.29%
CC(C)(C)C(=O)C(Oc1ccc(Cl)cc1)n1ccnc1 (stereo unspecified) [climbazole] | 93.4% and 88.3% | -4.19% and 0.822%
O=C(OCC(O)CO)c1ccccc1Nc1ccnc2c(C(F)(F)F)cccc12 (stereo unspecified) [floctafenine] | 90.5% | -0.889%
CCCc1c(SCCCOc2ccc(C(C)=O)c(OCCCC(=O)O)c2CCC)ccc(C(C)=O)c1O [tipelukast] | 94.9% | 2.87%
CCCCOc1ccc(CC(=O)NO)cc1 [bufexamac] | 129% | -3.56%
CO[C@H]1C[C@H](O[C@@H]2/C(C)=C\C[C@@H]3C[C@@H](C[C@]4(C=C[C@H](C)[C@@H](C(C)C)O4)O3)OC(=O)[C@@H]3C=C(C)[C@@H](O)[C@H]4OC/C(=C/C=C\[C@@H]2C)[C@]43O)O[C@@H](C)[C@H]1O[C@H]1C[C@@H](OC)[C@H](NC(C)=O)[C@H](C)O1 | 101% | -4.37%
CC1(C)O[C@@H]2C[C@H]3[C@@H]4C[C@H](F)C5=CC(=O)C=C[C@]5(C)[C@H]4[C@@H](O)C[C@]3(C)[C@]2(C(=O)CO)O1 [Nasalide] | 113% | -7.78%
Nc1ccc(S(=O)(=O)Nc2ccnn2-c2ccccc2)cc1 [sulfaphenazole] | 111% | 2.48%
CCCCC(F)(F)[C@@]1(O)CC[C@H]2[C@@H](CC(=O)[C@@H]2CCCCCCC(=O)O)O1 [lubiprostone] | 93% | -4.37%
COCCCC/C(=N\OCCN)c1ccc(C(F)(F)F)cc1 | 96.2% | -1.11%
COCCc1ccc(OCC(O)CNC(C)C)cc1 (stereo unspecified) [metoprolol] | 115% and 95.4% | -2.51% and -4.01%
CC(C)(Cc1ccccc1)NCC(O)c1ccc(O)c(NS(C)(=O)=O)c1 (stereo unspecified) [zinterol] | 104% | -2.21%
O=c1oc2c(O)c(O)cc3c(=O)oc4c(O)c(O)cc1c4c23 [ellagic acid] | 15.7% | -0.395%

Compound | mCherry [1] | percent effect [2]
COc1cc2c(cc1OC)C(=O)C(CC1CCN(Cc3ccccc3)CC1)C2 (stereo unspecified) [donepezil] | 97.7% | -3.74%
NCC(=O)CCC(=O)O | 85.1% | -4.56%
CCOCCn1c(N2CCCN(C)CC2)nc2ccccc21 [emedastine] | 95.8% | -2.43%
CCC(c1ccc(O)cc1)C(CC)C(C)c1ccc(O)cc1 (stereo unspecified) [benzestrol] | 83.4% | 1.2%
O=C(/C=C/C=C/c1ccc2c(c1)OCO2)N1CCCCC1 | 128% | -8.72%
C=CCOc1ccccc1OCC(O)CNC(C)C (stereo unspecified) [oxprenolol] | 93% | -4.46%
CC(C)CC(=O)N[C@H](C(=O)N[C@H](C(=O)N[C@@H](CC(C)C)[C@@H](O)CC(=O)N[C@@H](C)C(=O)N[C@@H](CC(C)C)[C@@H](O)CC(=O)O)C(C)C)C(C)C [pepstatin] | 92.8% | -0.79%
CN(C)C(=O)CCS[C@H](SCCC(=O)O)c1cccc(/C=C/c2ccc3ccc(Cl)cc3n2)c1 [verlukast] | 72.9% | -0.788%
CCOC(=O)c1ccc(N(CC(C)O)CC(C)O)cc1 (stereo unspecified) [roxadimate] | 72.1% | -3.31%
O=S(=O)(c1cccc2cnccc12)N1CCCNCC1 [fasudil] | 55.1% | -10.1%
CC(C)CN(C[C@@H](O)[C@H](Cc1ccccc1)NC(=O)O[C@H]1CCOC1)S(=O)(=O)c1ccc(N)cc1 [amprenavir] | 112% | 14.9%
O=C(O)CCCCCCCNC(=O)c1ccccc1O [salcaprozic acid] | 75.1% | 4.45%
CCN(CC)CCOCCOC(=O)C(CC)(CC)c1ccccc1 [oxeladin] | 82.1% | -3.38%
CC(C)[C@H](N)C(=O)OCC(CO)OCn1cnc2c(=O)nc(N)[nH]c21 (stereo partly specified) [Valcyte] | 105% | -6.65%
CC[C@@H]1C(=O)OC[C@@H]1Cc1cncn1C [Pilocarpine·HCl] | 85.7% | -0.801%
N[C@@H](CSCC(=O)O)C(=O)O [Carbocisteine] | 99.2% | -2.78%
